Measured values from patent publication US8003801B2 (The Scripps Research Institute, priority 2005, dated 2011).
Some results were stated once for a whole list of compounds, not compound by compound.

Each compound was assayed on drug-sensitive and drug-resistant human cancer cell lines (assay: Cytotoxicity assays across the panel of cell lines (summary in words)). Details: summary of Tables 1A-1C.
Assay type: cell-based

SMILES | cytotoxicity across the tested cell lines, in words
CSc1cc(/C=C(\C)[C@@H]2C[C@@H]3O[C@]3(C)CCC[C@H](C)[C@H](O)[C@@H](C)C(=O)C(C)(C)[C@@H](O)CC(=O)O2)nn1C [Compound 16] | excellent biological activity
C/C(=C\c1ccn(-c2ccccc2)n1)[C@@H]1C[C@@H]2O[C@]2(C)CCC[C@H](C)[C@H](O)[C@@H](C)C(=O)C(C)(C)[C@@H](O)CC(=O)O1 [Compound 15] | excellent biological activity
C/C(=C\c1ccn(C)n1)[C@@H]1C[C@@H]2O[C@]2(C)CCC[C@H](C)[C@H](O)[C@@H](C)C(=O)C(C)(C)[C@@H](O)CC(=O)O1 [Compound 14] | excellent biological activity
